Measured values: US20220331309A1, “PHARMACEUTICAL COMPOSITION FOR TREATING INSOMNIA” (priority 2019, published 2022)

Assay: Single dose administration test of lemborexant in healthy adults (Test Example 3)
Assay type: in vivo, human
Method: In 64 cases of healthy adults under a feed-deprived condition, the pharmacokinetics of lemborexant administered with single doses of 1, 2.5, 5, 10, 25, 50, 100, and 200 mg thereof was examined by a randomized, double-blinded, placebo-controlled, multi-stage single administration test. In each group, lemborexant was administered to six cases, and the placebo was administered to two cases.
The transition of the mean lemborexant concentration in the plasma when single doses of 1, […], 10, 25, 50, 100, and 200 mg lemborexant were administered to the healthy adults is shown in FIG. 1.

Cc1ncc(OC[C@@]2(c3cccc(F)c3)C[C@H]2C(=O)Nc2ccc(F)cn2)c(C)n1 [lemborexant, (1R,2S)-2-(((2,4-dimethylpyrimidin-5-yl)oxy)methyl)-2-(3-fluorophenyl)-N-(5-fluoropyridin-2-yl)cyclopropanecarboxamide]
correlation between plasma concentration and pharmacodynamic evaluations (DSST, PVT, KSS) (dose of 10 mg or more): a correlation was found | correlation between plasma concentration and pharmacodynamic evaluations (DSST, PVT, KSS) (dose up to 5 mg): the correlation was barely found
